The source of these data is patent publication US20170192014A1 (PDL BIOPHARMA, published 2017).

Results are given in words; binding and its absence hold for the method and conditions named. Some entries that bind do so weakly or less than the wild type.

The target of the experiment is T1, caspase-3-cleaved (treated) CK-18 (Homo sapiens (Human)) (UniProt P05783).
T1 sequence: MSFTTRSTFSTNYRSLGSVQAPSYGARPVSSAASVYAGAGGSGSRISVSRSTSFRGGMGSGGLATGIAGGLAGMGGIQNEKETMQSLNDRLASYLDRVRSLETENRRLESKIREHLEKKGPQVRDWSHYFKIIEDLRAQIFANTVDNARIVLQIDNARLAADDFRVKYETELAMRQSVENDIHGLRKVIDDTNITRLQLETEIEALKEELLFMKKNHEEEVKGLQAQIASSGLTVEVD
In words: sandwich ECL assay, capture biotin-3C2 on streptavidin beads, detector TAG-C-04, 150 ng/mL in normal human serum.

B1: monoclonal antibody 3C2 (antibody, V domains shown)
VH: DVQLVESGGGLVQPGGSRKLSCAASGFTFSSFGMHWVRQAPEKGLEWVAYINGGSTIIYYADTVKGRFTVSRDNPKNTLFLQMTSLRSDDTAMYFCVRRTPTAAGGAMDYWGQGTSVTVSS
VL: NIMVTQSPSSLAVSAGEKVTMTCKSSQSLFYSSNQKNYLAWFQQKPGQSPKLLIYWASTRESGVADRFTGSGYGTDFTLTISSVQAEDLAVYYCQQYLSSWTFGGGTKVEIK
notes: Mouse hybridoma monoclonal antibody, detected with goat anti-mouse IgG; also called mAb 3C2; anti-VEVD mAb
Regarding B1, the binding result is recorded as “binds”.
